# These are yes or no findings as the source states them, for the method shown. For part of these data: Binding can be weak; no strength is given. Sequences can lack the tags named with a protein.
# Tests used:
# [1] = molecular target: FHA domain of Chk2^Cds1 H81A, two-hybrid fusion (fission yeast); experiment: two-hybrid; Matchmaker Gold system, pGADT7 in Y187 crossed with pGBKT7 in Y2HGold; diploids plated on SD-Trp-Leu and SD-Trp-Leu-His, 30°C, 2-3 d
# [2] = molecular target: FHA domain of Chk2^Cds1, two-hybrid fusion (fission yeast); experiment: as above
binding [1],binding [2],Binder
no binding,binds,"Sid4, two-hybrid fusion tested with the Chk2^Cds1 FHA domain (protein, UniProt O60187 1-660) MDEAFGDSLSTDYRWLGHSHFDSHPSAGDSIYFDSLDEDADPSRTARIDRIAELLDGLNDEQISELVNGVNSTTIKENTKKEISNPNDSTRLPLEQIPGSNNLFLDPRHQLGDNSQNAQRHHEPSFNSEKASYTSTPYKNVAPKVIDSPSARHMHSNSPSFPPSQSHTSSYDQSPKGQLRDNISVPNQQDGLDPEVFNQQSKETKKSLQVPPSRNVPPPVTRPNQYNPEPNFSLSSGYPQQHFSQPELQNRNVHLETVPESYPVPPSGYPLTSSTCVSSISQPIQSTDCQKAQENLSNNKQMSSNDQDIDPFKQAITDLPPSFVNIVLEMNATIQSLSNQCQQRDKQIENITKQLLMNQQDYCPTTMSTTVSTPLCPPKRFPKSTKDFKEQKPDTKQVRSATISNDFNLKGNGRYNEKSQIAVPSEIRVQLSTLDAILLQFEHLRKELTQARKEIQILRHTSQNGDQESNESSKNAITTKTTDKGNNKENTMLNDGSTAPAKNDIRNVINTNNLDAKLSDESELMIEKNKSYSTPASSTIPTFHTSQPLTSLNMPDSRFNLAKEKQLYYRLGLQHIDQQCSVETANMLKTVLVQLNIPFAIFPSTIGQVRRQLQQGRRLYQWARNIHYLIYEENMRDGLVSKQCLADMLKKIRELKKRSL"
,no binding,"Sid4.T275AS278A, two-hybrid fusion (protein, UniProt O60187 1-660) MDEAFGDSLSTDYRWLGHSHFDSHPSAGDSIYFDSLDEDADPSRTARIDRIAELLDGLNDEQISELVNGVNSTTIKENTKKEISNPNDSTRLPLEQIPGSNNLFLDPRHQLGDNSQNAQRHHEPSFNSEKASYTSTPYKNVAPKVIDSPSARHMHSNSPSFPPSQSHTSSYDQSPKGQLRDNISVPNQQDGLDPEVFNQQSKETKKSLQVPPSRNVPPPVTRPNQYNPEPNFSLSSGYPQQHFSQPELQNRNVHLETVPESYPVPPSGYPLTSSACVASISQPIQSTDCQKAQENLSNNKQMSSNDQDIDPFKQAITDLPPSFVNIVLEMNATIQSLSNQCQQRDKQIENITKQLLMNQQDYCPTTMSTTVSTPLCPPKRFPKSTKDFKEQKPDTKQVRSATISNDFNLKGNGRYNEKSQIAVPSEIRVQLSTLDAILLQFEHLRKELTQARKEIQILRHTSQNGDQESNESSKNAITTKTTDKGNNKENTMLNDGSTAPAKNDIRNVINTNNLDAKLSDESELMIEKNKSYSTPASSTIPTFHTSQPLTSLNMPDSRFNLAKEKQLYYRLGLQHIDQQCSVETANMLKTVLVQLNIPFAIFPSTIGQVRRQLQQGRRLYQWARNIHYLIYEENMRDGLVSKQCLADMLKKIRELKKRSL"

# Source: paper PMC5584178
